Source: paper PMC6538630
These are yes or no findings as the source states them, for the method shown. Binding seen in cells or lysates may run through a third protein. Some binding calls cover weakened binding; strength is not graded here.

Protein sequences, listed by entry. Tags and fused reporters are not part of them. Lines headed by an entry give the natural chain unless they say otherwise; changes in a name come on top. Chains listed by the source or under a name are the forms on record and can include a tag or linker. Residues count along the entry.
UniProt Q92673: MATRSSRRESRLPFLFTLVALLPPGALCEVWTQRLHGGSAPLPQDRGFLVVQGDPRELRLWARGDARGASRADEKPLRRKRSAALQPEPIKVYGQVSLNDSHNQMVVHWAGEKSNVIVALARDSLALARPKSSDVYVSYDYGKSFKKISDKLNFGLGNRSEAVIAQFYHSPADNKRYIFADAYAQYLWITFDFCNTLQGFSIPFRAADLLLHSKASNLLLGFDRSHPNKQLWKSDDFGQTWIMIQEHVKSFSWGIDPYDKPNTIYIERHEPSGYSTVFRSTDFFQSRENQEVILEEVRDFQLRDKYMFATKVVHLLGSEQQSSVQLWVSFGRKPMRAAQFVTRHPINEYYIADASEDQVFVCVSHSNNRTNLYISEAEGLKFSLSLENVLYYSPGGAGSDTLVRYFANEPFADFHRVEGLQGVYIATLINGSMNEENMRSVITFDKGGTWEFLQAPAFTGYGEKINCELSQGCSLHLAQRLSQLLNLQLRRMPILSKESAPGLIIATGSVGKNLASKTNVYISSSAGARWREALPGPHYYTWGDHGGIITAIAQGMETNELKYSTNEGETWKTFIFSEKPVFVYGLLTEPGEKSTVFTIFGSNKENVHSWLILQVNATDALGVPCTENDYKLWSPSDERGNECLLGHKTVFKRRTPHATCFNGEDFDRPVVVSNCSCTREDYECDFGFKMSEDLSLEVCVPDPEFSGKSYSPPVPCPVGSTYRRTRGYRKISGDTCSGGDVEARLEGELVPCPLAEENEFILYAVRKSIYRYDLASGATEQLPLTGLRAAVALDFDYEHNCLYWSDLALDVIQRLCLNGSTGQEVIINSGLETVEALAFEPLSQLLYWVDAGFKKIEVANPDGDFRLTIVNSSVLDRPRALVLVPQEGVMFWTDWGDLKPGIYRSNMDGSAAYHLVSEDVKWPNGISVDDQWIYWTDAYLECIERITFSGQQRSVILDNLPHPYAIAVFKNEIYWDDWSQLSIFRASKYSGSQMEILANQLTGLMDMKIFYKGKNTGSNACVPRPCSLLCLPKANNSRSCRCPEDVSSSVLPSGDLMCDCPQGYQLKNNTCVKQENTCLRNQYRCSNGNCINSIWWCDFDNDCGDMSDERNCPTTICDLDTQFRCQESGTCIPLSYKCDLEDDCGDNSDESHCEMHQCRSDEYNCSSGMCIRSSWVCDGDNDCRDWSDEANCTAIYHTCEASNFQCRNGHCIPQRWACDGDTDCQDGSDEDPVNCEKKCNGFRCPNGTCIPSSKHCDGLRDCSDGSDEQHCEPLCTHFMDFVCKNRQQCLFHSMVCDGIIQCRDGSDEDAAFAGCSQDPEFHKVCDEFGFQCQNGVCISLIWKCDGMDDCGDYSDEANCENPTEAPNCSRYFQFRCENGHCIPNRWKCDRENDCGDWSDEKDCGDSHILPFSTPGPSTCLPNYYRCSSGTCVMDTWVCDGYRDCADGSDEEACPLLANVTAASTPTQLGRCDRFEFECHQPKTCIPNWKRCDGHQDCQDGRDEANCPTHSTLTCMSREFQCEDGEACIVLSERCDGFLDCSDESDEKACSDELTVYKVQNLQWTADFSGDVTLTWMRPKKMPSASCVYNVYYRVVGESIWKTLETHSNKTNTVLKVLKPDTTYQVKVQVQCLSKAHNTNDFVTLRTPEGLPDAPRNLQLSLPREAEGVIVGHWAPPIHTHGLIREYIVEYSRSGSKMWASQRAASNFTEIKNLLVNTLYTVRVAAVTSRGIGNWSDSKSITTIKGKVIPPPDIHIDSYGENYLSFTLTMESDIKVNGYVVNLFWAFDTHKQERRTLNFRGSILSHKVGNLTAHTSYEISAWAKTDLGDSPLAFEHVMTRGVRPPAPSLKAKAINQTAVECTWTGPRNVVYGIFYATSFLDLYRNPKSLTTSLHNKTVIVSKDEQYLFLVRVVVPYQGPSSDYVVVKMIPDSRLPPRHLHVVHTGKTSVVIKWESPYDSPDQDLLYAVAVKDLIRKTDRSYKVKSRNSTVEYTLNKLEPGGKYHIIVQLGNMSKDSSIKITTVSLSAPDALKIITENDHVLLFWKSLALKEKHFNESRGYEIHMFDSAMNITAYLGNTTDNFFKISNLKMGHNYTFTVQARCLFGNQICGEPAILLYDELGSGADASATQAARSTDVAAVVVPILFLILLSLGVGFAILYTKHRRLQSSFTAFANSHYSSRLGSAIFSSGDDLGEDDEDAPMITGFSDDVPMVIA
myc and 6xHIS-tagged full-length SORLA ECD: residues 82-2137 of Q92673

Tests used:
full-length SORLA-GFP = full-length SORLA-GFP (UniProt Q92673); experiment: co-IP; SORLA-GFP constructs expressed in MDA-MB-361 cells; lysate (0.5% Triton X-100, 10 mM Pipes pH 6.8, 150 mM NaCl, 150 mM sucrose, 3 mM MgCl2) incubated with GFP-trap beads 1 h at +4 °C; blot for endogenous HER2
[1] = target: myc and 6xHIS-tagged full-length SORLA ECD (UniProt Q92673); experiment: pull-down; purified recombinant myc and 6xHIS-tagged SORLA ECD and ECD fragments as bait; endogenous HER2 from BT474 cell lysate; only the target purified
[2] = target: human epidermal growth factor receptor 2 (HER2), endogenous (human (endogenous in MDA-MB-361 and BT474)) (UniProt P04626); experiment: co-IP; endogenous proteins in MDA-MB-361 and BT474 lysates (0.5% Triton X-100, 10 mM Pipes pH 6.8, 150 mM NaCl, 150 mM sucrose, 3 mM MgCl2); IP with mouse anti-HER2 antibody overnight at +4 °C, protein-G sepharose; isotype IgG control; blot for SORLA

| binding (full-length SORLA-GFP) | binding [1] | binding [2] | Substance |
| --- | --- | --- | --- |
| binds | binds | – | human epidermal growth factor receptor 2 (HER2), endogenous (from UniProt P04626 23-1255) |
| – | – | binds | sortilin-related receptor 1 (SORLA), endogenous (from UniProt Q92673 82-2214) |
